Earlier results, collected in patent publication US7544662B2, “Polypeptides useful for appetite suppression” (priority 1993, dated 2009).
At least one structure is not confirmed: it was looked up by name or label, or the drawing left a doubt.

Tested on: patients
Conditions: et al.

## C[C@H](CCC(=O)O)[C@H]1CC[C@H]2[C@@H]3[C@@H](O)C[C@@H]4C[C@H](O)CC[C@]4(C)[C@H]3CC[C@]12C [UDCA, ursodeoxycholic acid]
Jazrawi, De Coestecker, 1994
  primary sclerosing cholangitis of the liver: improves liver function
Rubin, Kowalski, 1994
  therapy for patients with cholesterol gall stones: safe and effective therapy
Patients receiving bone marrow transplants, Fried, Murakawi, 1992
  treatment of refractory chronic graft versus host disease of the liver: safe, well-tolerated, and efficacious treatment
